Measurements taken from patent US8247594B2, “Insecticidal compounds” (Syngenta Crop Protection LLC, priority 2007, dated 2012).
Some entries share one result that the patent states for a list of compounds.

Key:
Assay type in all cases: in vivo
Diabrotica balteata = Diabrotica balteata (corn root worm) artificial diet test; details: application rate 200 ppm (concentration in well 18 ppm), L2 larvae, 5 days, larval mortality, growth regulation
Plutella xylostella = Plutella xylostella (diamond back moth) artificial diet test; details: application rate 200 ppm (concentration in well 18 ppm), L2 larvae, 6 days, larval mortality, growth regulation
Spodoptera littoralis = Spodoptera littoralis (Egyptian cotton leafworm) leaf disc spray test; details: application rate 200 ppm, sprayed cotton leaf discs, L1 larvae, 3 DAT; mortality, feeding behaviour, growth regulation
Heliothis virescens = Heliothis virescens (tobacco budworm) egg test on artificial diet; details: application rate 200 ppm (concentration in well 18 ppm), eggs 0-24 h old on artificial diet, 4 days; egg mortality, larval mortality, growth regulation

Cc1cc(C(F)(C(F)(F)F)C(F)(F)F)cc(C)c1NC(=O)c1ccc(C#N)c(NC(=O)OCC(Cl)(Cl)Cl)c1 [A1]
at least 80%: control of Diabrotica balteata (Diabrotica balteata) | control of Plutella xylostella (Plutella xylostella) | control of Spodoptera littoralis (Spodoptera littoralis) | control of Heliothis virescens (Heliothis virescens)

Cc1cc(C(F)(C(F)(F)F)C(F)(F)F)cc(C)c1NC(=O)c1cc(C#N)cc(NC(=O)OCC(Cl)(Cl)Cl)c1 [B1]
at least 80%: control of Diabrotica balteata (Diabrotica balteata) | control of Plutella xylostella (Plutella xylostella) | control of Spodoptera littoralis (Spodoptera littoralis) | control of Heliothis virescens (Heliothis virescens)
